According to publication PMC13423832:
These are yes or no findings as the source states them, for the method shown. Binding can be weak; no strength is given. For part of these data: Sequences can lack the tags named with a protein. For part of these data: In cells and extracts the contact can be indirect. Values belong to the molecule of their own block, whether it stands above or below them.

Sequences of proteins named here, by UniProt entry; tags and fusion partners are left off. A change or cut given only in a name is not applied to a line headed by its entry.
UniProt P20674: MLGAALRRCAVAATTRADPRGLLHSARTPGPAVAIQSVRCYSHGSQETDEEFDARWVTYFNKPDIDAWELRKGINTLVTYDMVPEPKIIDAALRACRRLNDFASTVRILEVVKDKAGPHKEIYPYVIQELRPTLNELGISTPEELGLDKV
UniProt Q9NQC3: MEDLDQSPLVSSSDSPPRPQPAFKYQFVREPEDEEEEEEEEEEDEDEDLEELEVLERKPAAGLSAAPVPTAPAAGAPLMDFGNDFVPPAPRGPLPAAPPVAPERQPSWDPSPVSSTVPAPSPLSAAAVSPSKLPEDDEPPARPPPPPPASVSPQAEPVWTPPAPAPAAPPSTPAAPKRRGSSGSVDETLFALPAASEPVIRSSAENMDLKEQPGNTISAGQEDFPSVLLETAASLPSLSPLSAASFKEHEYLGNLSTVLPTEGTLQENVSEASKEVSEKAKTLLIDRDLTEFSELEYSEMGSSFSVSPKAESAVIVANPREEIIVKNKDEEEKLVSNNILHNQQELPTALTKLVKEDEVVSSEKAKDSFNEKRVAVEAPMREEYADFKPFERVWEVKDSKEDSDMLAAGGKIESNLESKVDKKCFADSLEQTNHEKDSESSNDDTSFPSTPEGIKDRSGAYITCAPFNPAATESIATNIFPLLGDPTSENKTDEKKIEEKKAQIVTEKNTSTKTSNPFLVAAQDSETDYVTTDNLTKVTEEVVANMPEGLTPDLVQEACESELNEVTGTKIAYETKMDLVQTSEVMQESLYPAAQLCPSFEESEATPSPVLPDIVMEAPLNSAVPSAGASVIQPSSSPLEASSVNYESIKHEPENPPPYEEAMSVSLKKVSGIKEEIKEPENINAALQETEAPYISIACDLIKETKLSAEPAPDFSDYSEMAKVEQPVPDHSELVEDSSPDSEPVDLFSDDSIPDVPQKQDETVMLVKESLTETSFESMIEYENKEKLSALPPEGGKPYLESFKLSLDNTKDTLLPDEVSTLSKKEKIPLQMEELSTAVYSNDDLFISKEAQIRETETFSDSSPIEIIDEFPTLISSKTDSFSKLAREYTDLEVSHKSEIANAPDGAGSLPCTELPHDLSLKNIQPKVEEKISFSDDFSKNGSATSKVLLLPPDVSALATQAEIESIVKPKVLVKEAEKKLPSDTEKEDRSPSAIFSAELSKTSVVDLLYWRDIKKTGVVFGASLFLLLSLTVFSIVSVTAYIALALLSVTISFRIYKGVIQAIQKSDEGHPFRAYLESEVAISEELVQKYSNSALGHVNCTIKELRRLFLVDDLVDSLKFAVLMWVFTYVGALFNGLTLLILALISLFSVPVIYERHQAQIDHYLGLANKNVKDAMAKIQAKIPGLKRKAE

Experiments:
[1] = target: T1, RTNR-FLAG-His (Nogo66 receptor) on HEK293T cells (UniProt Q9BZR6); experiment: alkaline phosphatase (AP) fusion protein binding to cells; 100 nM purified AP fusion protein in HBAH buffer (pH 7.45) on HEK293T cells stably expressing RTNR-FLAG-His, 4 °C, 3 h; five washes; cells lysed, heated at 65 °C, bound heat-stable AP activity read with p-NPP at 405 nm; AP fusion proteins also pre-treated with asciminib (10 uM, 15 min); only the binder purified
T1 sequence: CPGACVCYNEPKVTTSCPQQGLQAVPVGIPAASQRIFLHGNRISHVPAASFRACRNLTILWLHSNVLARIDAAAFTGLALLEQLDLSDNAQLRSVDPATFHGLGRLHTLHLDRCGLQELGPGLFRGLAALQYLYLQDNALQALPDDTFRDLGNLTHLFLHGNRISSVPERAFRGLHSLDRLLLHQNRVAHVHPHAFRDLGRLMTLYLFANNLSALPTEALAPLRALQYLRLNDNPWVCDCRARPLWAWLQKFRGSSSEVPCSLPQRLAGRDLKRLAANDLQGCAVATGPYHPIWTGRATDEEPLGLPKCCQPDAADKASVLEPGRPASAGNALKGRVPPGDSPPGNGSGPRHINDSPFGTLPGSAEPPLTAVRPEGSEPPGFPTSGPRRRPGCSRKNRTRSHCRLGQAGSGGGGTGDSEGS

[2] = target: Y80W-COX5A-FLAG (UniProt P20674); experiment: co-IP; FLAG immunoprecipitation from lysates (0.3% CHAPS in PBS) of HEK293T transiently overexpressing FLAG-tagged GFP, wild-type or mutant COX5A; cells untreated or treated with asciminib (10 uM, 1 h) with or without UV; blot for PMPCB
[3] = target: T79G-COX5A-FLAG (UniProt P20674); experiment: as above
[4] = target: COX5A-FLAG, wild type (UniProt P20674); experiment: as above
[5] = target: T79W-COX5A-FLAG (UniProt P20674); experiment: as above
[6] = target: D81W-COX5A-FLAG (UniProt P20674); experiment: as above

binding [1]: binds
Molecule: AP-Nogo66-His, wild type (alkaline phosphatase fusion of the NOGO66 domain of reticulon-4) (from UniProt Q9NQC3) (domain or fragment)

binding [2]: binds
binding [3]: binds
binding [4]: binds
binding [5]: binds
binding [6]: binds
B1: PMPCB, beta subunit of the mitochondrial-processing peptidase (enzyme, UniProt O75439 44-489)
chain: STQAATQVVLNVPETRVTCLESGLRVASEDSGLSTCTVGLWIDAGSRYENEKNNGTAHFLEHMAFKGTKKRSQLDLELEIENMGAHLNAYTSREQTVYYAKAFSKDLPRAVEILADIIQNSTLGEAEIERERGVILREMQEVETNLQEVVFDYLHATAYQNTALGRTILGPTENIKSISRKDLVDYITTHYKGPRIVLAAAGGVSHDELLDLAKFHFGDSLCTHKGEIPALPPCKFTGSEIRVRDDKMPLAHLAIAVEAVGWAHPDTICLMVANTLIGNWDRSFGGGMNLSSKLAQLTCHGNLCHSFQSFNTSYTDTGLWGLYMVCESSTVADMLHVVQKEWMRLCTSVTESEVARARNLLKTNMLLQLDGSTPICEDIGRQMLCYNRRIPIPELEARIDAVNAETIREVCTKYIYNRSPAIAAVGPIKQLPDFKQIRSNMCWLRD
